Earlier results on eight compounds are cited in PMC12951568, “Identifying Structural Factors Governing the Photodynamic Activity of Phthalocyanines” (Journal of Medicinal Chemistry, 2026).

For this series, the system named is HeLa cells. Set-up: method as in number not printed in Table 2; key: Ly, lysosomes; Me, membrane; Mi, mitochondria. The note with it: 12 h incubation; determined previously at the same workplace and published; ref number not given; cited from earlier work.

Take `Cc1cc(Cn2cc[n+](C)c2)c(Oc2c3c(c(C)c(C)[n+]2C)C2=NC3=Nc3c4ccccc4c4[n]3[Zn][n]3c(c5ccccc5c3=N2)=NC2=NC(=N4)c3ccccc32)c(Cn2cc[n+](C)c2)c1.[I-].[I-].[I-]` [C1Zn]: the “Subcellular localization (HeLa)” value was “Ly, Me”.

As for `Cc1cc(Cn2cc[n+](C)c2)c(Oc2c3c(c(C)c(C)[n+]2C)C2=NC3=Nc3c4cc(SC(C)(C)C)c(SC(C)(C)C)cc4c4[n]3[Zn][n]3c(c5cc(SC(C)(C)C)c(SC(C)(C)C)cc5c3=N2)=NC2=NC(=N4)c3cc(SC(C)(C)C)c(SC(C)(C)C)cc32)c(Cn2cc[n+](C)c2)c1.[I-].[I-].[I-]` [C2Zn], the “Subcellular localization (HeLa)” value is given as “Ly, Me”.

Consider `Cc1cc(Cn2cc[n+](C)c2)c(Oc2cc3c(cc2Oc2c(Cn4cc[n+](C)c4)cc(C)cc2Cn2cc[n+](C)c2)C2=Nc4c5ccccc5c5[n]4[Zn][n]4c(c6ccccc6c4=NC3=N2)=NC2=NC(=N5)c3ccccc32)c(Cn2cc[n+](C)c2)c1.[I-].[I-].[I-].[I-]` [C3Zn], for which the “Subcellular localization (HeLa)” value is recorded as “Ly, Me”.

With `CSc1cc2c(cc1SC)C1=Nc3c4cc(SC)c(SC)cc4c4[n]3[Zn][n]3c(c5cc(SC)c(SC)cc5c3=NC2=N1)=NC1=NC(=N4)c2cc(Oc3c(Cn4cc[n+](C)c4)cc(C)cc3Cn3cc[n+](C)c3)c(Oc3c(Cn4cc[n+](C)c4)cc(C)cc3Cn3cc[n+](C)c3)cc21.[I-].[I-].[I-].[I-]` [C4Zn], the “Subcellular localization (HeLa)” value is reported as “Ly, Me”.

Turning to `CC[N+](CC)(CC)CCSc1ccc(SCC[N+](CC)(CC)CC)c2c1C1=NC2=Nc2c3c(SCC[N+](CC)(CC)CC)ccc(SCC[N+](CC)(CC)CC)c3c3[n]2[Zn][n]2c(c4c(SCC[N+](CC)(CC)CC)ccc(SCC[N+](CC)(CC)CC)c4c2=NC2=NC(=N3)c3c(SCC[N+](CC)(CC)CC)ccc(SCC[N+](CC)(CC)CC)c32)=N1.[I-].[I-].[I-].[I-].[I-].[I-].[I-].[I-]` [C9Zn], the “Subcellular localization (HeLa)” value was “Ly”.

For the compound `Cc1cc(Cn2cc[n+](C)c2)c(Oc2c3c(c(C)c(C)[n+]2C)C2=Nc4c5c(Oc6c(Cn7cc[n+](C)c7)cc(C)cc6Cn6cc[n+](C)c6)[n+](C)c(C)c(C)c5c5[n]4[Zn][n]4c(c6c(C)c(C)[n+](C)c(Oc7c(Cn8cc[n+](C)c8)cc(C)cc7Cn7cc[n+](C)c7)c6c4=NC4=NC(=N5)c5c4c(C)c(C)[n+](C)c5Oc4c(Cn5cc[n+](C)c5)cc(C)cc4Cn4cc[n+](C)c4)=NC3=N2)c(Cn2cc[n+](C)c2)c1.[I-].[I-].[I-].[I-].[I-].[I-].[I-].[I-].[I-].[I-].[I-].[I-]` [C11Zn], the “Subcellular localization (HeLa)” value is given as “Ly”.

`Cc1cc(Cn2cc[n+](C)c2)c(Oc2cc3c(cc2Oc2c(Cn4cc[n+](C)c4)cc(C)cc2Cn2cc[n+](C)c2)C2=Nc4c5cc(Oc6c(Cn7cc[n+](C)c7)cc(C)cc6Cn6cc[n+](C)c6)c(Oc6c(Cn7cc[n+](C)c7)cc(C)cc6Cn6cc[n+](C)c6)cc5c5[n]4[Zn][n]4c(c6cc(Oc7c(Cn8cc[n+](C)c8)cc(C)cc7Cn7cc[n+](C)c7)c(Oc7c(Cn8cc[n+](C)c8)cc(C)cc7Cn7cc[n+](C)c7)cc6c4=NC4=NC(=N5)c5cc(Oc6c(Cn7cc[n+](C)c7)cc(C)cc6Cn6cc[n+](C)c6)c(Oc6c(Cn7cc[n+](C)c7)cc(C)cc6Cn6cc[n+](C)c6)cc54)=NC3=N2)c(Cn2cc[n+](C)c2)c1.[I-].[I-].[I-].[I-].[I-].[I-].[I-].[I-].[I-].[I-].[I-].[I-].[I-].[I-].[I-].[I-]` [C12Zn]: the “Subcellular localization (HeLa)” value is reported as “Ly”.

In the case of `Cc1cc(Cn2c[n+](C)cn2)c(Oc2cc3c(cc2Oc2c(Cn4c[n+](C)cn4)cc(C)cc2Cn2c[n+](C)cn2)C2=Nc4c5cc(Oc6c(Cn7c[n+](C)cn7)cc(C)cc6Cn6c[n+](C)cn6)c(Oc6c(Cn7c[n+](C)cn7)cc(C)cc6Cn6c[n+](C)cn6)cc5c5[n]4[Zn][n]4c(c6cc(Oc7c(Cn8c[n+](C)cn8)cc(C)cc7Cn7c[n+](C)cn7)c(Oc7c(Cn8c[n+](C)cn8)cc(C)cc7Cn7c[n+](C)cn7)cc6c4=NC4=NC(=N5)c5cc(Oc6c(Cn7c[n+](C)cn7)cc(C)cc6Cn6c[n+](C)cn6)c(Oc6c(Cn7c[n+](C)cn7)cc(C)cc6Cn6c[n+](C)cn6)cc54)=NC3=N2)c(Cn2c[n+](C)cn2)c1.[I-].[I-].[I-].[I-].[I-].[I-].[I-].[I-].[I-].[I-].[I-].[I-].[I-].[I-].[I-].[I-]` [C13Zn], the “Subcellular localization (HeLa)” value is “Ly”.
